Measurements published in paper PMC6851226.
These are yes or no findings as the source states them, for the method shown. In cells and extracts the contact can be indirect. Some results given as binding are weak or reduced against the parent protein; the word gives no strength.

Protein sequences, listed by entry. Tags and fused reporters are not part of them. Residues count along the entry.
UniProt P29317, residues 24-976: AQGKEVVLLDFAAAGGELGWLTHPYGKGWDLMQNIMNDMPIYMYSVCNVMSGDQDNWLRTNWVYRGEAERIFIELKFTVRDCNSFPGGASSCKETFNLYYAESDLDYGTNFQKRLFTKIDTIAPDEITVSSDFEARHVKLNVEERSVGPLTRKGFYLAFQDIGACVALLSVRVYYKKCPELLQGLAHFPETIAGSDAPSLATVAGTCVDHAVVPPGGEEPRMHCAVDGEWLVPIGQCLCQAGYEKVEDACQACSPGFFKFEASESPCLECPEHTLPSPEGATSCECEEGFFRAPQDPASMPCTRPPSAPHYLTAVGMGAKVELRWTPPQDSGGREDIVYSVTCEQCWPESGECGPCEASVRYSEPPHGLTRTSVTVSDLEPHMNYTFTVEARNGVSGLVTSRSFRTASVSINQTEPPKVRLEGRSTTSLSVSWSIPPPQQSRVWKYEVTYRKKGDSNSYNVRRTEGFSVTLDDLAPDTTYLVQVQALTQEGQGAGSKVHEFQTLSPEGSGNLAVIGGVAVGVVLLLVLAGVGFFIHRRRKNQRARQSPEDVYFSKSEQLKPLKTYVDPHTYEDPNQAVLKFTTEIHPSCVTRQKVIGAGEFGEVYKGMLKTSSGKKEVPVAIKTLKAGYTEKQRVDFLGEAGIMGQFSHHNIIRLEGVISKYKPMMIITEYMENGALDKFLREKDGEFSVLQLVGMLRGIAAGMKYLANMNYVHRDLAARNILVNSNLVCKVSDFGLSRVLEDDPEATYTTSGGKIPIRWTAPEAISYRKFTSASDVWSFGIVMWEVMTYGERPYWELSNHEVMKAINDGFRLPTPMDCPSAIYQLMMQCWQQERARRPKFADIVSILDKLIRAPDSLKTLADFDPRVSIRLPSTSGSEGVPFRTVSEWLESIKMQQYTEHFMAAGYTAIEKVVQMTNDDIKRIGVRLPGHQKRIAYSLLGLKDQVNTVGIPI

T1: EphA3 (human (endogenous in primary GBM cultures)) (UniProt P29320)
T1 sequence: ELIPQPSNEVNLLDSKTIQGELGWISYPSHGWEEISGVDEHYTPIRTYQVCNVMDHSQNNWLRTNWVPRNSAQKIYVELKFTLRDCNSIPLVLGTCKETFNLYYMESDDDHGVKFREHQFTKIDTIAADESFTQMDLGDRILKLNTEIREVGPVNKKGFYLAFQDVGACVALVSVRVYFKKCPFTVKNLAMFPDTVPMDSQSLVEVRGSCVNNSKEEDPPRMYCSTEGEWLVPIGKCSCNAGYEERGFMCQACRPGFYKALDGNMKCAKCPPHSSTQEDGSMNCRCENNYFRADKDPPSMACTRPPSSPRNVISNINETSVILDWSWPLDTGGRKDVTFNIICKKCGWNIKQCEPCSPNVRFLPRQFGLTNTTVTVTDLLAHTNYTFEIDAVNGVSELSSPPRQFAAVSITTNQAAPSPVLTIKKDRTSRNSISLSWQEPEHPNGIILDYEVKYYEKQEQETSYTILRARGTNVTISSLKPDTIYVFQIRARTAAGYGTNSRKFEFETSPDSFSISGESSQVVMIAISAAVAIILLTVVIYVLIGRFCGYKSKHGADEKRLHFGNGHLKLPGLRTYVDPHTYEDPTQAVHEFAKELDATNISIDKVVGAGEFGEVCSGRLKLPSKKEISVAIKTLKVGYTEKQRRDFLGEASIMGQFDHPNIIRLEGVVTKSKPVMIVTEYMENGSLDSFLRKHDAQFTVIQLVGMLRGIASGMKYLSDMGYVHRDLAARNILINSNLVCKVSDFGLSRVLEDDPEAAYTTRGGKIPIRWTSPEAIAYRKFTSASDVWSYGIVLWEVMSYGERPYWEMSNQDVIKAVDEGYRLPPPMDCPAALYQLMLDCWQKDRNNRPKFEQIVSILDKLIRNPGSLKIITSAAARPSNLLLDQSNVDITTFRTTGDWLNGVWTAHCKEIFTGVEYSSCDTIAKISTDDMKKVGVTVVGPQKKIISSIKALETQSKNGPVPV


Experiments:
[1] = molecular target: T1, EphA3 (human (endogenous in primary GBM cultures)); test: co-IP; immunoprecipitation of EphA3 in GBM cells; EGFR detected in the precipitate (Online Resource 5d)
[2] = molecular target: T1, EphA3 (human (endogenous in primary GBM cultures)); test: co-IP; immunoprecipitation of EphA3 from 1 mg of lysate from four early passage primary GBM cultures; Protein G only as control; blotted for EphA2, EphA3 and glycosylated αDG

| binding [1] | binding [2] | Molecule |
| --- | --- | --- |
| binds | – | EGFR (from UniProt P00533 25-1210) (receptor) |
| – | binds | EphA2 (from UniProt P29317 24-976) (receptor) |
| – | binds | glycosylated α-dystroglycan (protein, UniProt Q14118 30-653, glycosylated (glycan moieties on αDG recognised by the IIH6 mAb)) HWPSEPSEAVRDWENQLEASMHSVLSDLHEAVPTVVGIPDGTAVVGRSFRVTIPTDLIASSGDIIKVSAAGKEALPSWLHWDSQSHTLEGLPLDTDKGVHYISVSATRLGANGSHIPQTSSVFSIEVYPEDHSELQSVRTASPDPGEVVSSACAADEPVTVLTVILDADLTKMTPKQRIDLLHRMRSFSEVELHNMKLVPVVNNRLFDMSAFMAGPGNAKKVVENGALLSWKLGCSLNQNSVPDIHGVEAPAREGAMSAQLGYPVVGWHIANKKPPLPKRVRRQIHATPTPVTAIGPPTTAIQEPPSRIVPTPTSPAIAPPTETMAPPVRDPVPGKPTVTIRTRGAIIQTPTLGPIQPTRVSEAGTTVPGQIRPTMTIPGYVEPTAVATPPTTTTKKPRVSTPKPATPSTDSTTTTTRRPTKKPRTPRPVPRVTTKVSITRLETASPPTRIRTTTSGVPRGGEPNQRPELKNHIDRVDAWVGTYFEVKIPSDTFYDHEDTTTDKLKLTLKLREQQLVGEKSWVQFNSNSQLMYGLPDSSHVGKHEYFMHATDKGGLSAVDAFEIHVHRRPQGDRAPARFKAKFVGDPALVLNDIHKKIALVKKLAFAFGDRNCSTITLQNITRG |
